The list shows a part of the results.
Experiments:
Assay in all cases: log2 fold change, soluble protein after heating vs DMSO (PISA); higher = thermal stabilisation; K562 cells, 10 uM, 30 min; active = over 0.2 and 3.5 SD of the protein, either way, in both replicates (recomputed)
[1] = compound: CC[C@@H]1C(=O)N(C)c2cnc(Nc3ccc(C(=O)NC4CCN(C)CC4)cc3OC)nc2N1C1CCCC1
In short: (§1)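 K562 cells at 2×10^6 cells/mL were given 10 μM compound for 30 min. Aliquots then went through 3 min of heating across 48°C-58°C, were pooled, and were extracted in PBS with 0.5% NP-40 at 4°C, and the supernatant after 21,000xg for 90 min was quantified by TMTpro 16plex LC-MS/MS with channel sums equalised. Thermal stability relative to control samples, from duplicates, is given as log2 fold change.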

Amino acid sequences for entries named in this document (tags omitted). A change or cut given only in a name is not applied to a line headed by its entry.
UniProt Q8TEA1: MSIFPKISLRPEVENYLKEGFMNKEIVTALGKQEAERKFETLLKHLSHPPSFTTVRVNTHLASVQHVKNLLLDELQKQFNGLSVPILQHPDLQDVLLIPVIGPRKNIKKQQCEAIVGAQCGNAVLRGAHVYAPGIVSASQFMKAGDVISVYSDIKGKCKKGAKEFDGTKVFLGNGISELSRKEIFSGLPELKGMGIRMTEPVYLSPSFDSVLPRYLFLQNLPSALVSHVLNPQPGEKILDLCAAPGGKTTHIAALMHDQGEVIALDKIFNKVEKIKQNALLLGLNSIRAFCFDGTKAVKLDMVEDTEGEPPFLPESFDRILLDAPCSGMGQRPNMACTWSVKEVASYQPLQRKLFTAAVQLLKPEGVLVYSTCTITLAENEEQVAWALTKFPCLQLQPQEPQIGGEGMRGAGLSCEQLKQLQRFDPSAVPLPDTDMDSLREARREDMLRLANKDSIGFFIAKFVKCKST
UniProt P20774: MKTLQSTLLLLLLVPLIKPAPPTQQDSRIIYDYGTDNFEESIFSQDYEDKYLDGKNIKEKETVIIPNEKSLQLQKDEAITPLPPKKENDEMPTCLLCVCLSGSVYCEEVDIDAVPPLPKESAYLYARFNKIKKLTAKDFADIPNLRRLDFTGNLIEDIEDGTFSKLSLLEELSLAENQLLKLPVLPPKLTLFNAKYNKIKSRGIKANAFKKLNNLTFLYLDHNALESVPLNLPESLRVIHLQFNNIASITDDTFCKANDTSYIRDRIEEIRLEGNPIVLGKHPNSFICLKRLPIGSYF
UniProt O15460: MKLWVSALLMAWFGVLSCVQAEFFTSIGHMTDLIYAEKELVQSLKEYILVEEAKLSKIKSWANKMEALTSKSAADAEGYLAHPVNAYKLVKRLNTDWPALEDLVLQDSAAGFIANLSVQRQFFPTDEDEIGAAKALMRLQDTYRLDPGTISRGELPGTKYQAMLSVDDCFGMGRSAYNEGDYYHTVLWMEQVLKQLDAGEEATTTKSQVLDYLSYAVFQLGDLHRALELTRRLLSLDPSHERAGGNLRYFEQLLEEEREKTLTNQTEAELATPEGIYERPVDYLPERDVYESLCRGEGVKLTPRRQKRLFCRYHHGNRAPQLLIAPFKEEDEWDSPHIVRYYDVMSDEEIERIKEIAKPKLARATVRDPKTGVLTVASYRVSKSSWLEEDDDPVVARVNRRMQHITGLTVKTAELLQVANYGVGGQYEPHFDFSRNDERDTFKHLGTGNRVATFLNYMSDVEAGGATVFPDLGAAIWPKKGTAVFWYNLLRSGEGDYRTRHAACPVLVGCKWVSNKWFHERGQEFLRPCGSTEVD
UniProt Q96DE0: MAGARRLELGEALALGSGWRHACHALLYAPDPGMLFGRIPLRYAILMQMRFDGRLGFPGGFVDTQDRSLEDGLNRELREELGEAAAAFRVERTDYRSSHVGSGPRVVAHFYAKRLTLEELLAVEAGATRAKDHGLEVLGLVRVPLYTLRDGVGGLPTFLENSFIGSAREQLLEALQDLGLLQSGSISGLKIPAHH
UniProt P49757: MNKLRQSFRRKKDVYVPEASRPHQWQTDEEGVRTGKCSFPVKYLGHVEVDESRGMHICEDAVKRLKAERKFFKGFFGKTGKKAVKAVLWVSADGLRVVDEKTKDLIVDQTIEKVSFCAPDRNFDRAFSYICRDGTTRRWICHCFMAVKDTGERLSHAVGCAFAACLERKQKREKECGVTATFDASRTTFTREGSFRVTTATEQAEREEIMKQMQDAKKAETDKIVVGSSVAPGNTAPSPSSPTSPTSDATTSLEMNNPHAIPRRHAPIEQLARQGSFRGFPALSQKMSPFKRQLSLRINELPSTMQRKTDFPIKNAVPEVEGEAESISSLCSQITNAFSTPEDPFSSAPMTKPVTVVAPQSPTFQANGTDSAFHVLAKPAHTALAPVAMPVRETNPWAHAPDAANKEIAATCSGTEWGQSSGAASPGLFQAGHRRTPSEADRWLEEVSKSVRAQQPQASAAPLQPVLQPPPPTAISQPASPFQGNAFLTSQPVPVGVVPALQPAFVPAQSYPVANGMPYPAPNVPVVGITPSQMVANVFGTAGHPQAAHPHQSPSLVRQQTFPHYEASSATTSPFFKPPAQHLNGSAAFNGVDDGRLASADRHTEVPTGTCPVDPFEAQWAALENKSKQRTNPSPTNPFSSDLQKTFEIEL
UniProt P13674: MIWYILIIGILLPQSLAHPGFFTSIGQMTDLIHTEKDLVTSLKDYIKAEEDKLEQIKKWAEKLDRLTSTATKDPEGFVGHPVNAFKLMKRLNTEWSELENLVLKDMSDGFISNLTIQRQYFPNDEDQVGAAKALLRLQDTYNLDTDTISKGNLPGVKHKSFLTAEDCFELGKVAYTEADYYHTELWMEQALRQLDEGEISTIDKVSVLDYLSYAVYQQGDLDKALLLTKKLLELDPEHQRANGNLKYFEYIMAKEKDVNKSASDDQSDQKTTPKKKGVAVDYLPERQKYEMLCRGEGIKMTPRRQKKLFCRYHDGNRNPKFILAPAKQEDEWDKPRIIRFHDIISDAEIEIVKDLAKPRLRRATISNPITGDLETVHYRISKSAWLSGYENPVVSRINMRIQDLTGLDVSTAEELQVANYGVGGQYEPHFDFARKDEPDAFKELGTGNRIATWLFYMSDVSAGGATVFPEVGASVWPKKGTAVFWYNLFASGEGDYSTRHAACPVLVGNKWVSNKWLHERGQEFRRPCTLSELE
UniProt O15504: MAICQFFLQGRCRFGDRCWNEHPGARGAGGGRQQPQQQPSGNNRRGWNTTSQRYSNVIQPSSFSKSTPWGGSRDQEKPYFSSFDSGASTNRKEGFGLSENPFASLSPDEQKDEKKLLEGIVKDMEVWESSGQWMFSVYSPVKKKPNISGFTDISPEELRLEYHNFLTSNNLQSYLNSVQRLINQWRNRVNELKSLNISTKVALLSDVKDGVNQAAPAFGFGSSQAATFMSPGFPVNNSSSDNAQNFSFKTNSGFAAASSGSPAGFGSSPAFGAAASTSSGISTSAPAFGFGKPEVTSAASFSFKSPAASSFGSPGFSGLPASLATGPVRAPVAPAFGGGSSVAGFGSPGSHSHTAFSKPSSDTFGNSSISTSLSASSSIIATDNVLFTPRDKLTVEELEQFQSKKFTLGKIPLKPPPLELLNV
UniProt Q9BSD7: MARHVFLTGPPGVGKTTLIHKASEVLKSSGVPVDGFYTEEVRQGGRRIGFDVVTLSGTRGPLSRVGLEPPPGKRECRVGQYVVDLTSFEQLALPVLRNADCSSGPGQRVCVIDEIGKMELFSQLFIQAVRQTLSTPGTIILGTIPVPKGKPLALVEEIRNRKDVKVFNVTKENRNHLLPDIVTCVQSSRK
UniProt O14841: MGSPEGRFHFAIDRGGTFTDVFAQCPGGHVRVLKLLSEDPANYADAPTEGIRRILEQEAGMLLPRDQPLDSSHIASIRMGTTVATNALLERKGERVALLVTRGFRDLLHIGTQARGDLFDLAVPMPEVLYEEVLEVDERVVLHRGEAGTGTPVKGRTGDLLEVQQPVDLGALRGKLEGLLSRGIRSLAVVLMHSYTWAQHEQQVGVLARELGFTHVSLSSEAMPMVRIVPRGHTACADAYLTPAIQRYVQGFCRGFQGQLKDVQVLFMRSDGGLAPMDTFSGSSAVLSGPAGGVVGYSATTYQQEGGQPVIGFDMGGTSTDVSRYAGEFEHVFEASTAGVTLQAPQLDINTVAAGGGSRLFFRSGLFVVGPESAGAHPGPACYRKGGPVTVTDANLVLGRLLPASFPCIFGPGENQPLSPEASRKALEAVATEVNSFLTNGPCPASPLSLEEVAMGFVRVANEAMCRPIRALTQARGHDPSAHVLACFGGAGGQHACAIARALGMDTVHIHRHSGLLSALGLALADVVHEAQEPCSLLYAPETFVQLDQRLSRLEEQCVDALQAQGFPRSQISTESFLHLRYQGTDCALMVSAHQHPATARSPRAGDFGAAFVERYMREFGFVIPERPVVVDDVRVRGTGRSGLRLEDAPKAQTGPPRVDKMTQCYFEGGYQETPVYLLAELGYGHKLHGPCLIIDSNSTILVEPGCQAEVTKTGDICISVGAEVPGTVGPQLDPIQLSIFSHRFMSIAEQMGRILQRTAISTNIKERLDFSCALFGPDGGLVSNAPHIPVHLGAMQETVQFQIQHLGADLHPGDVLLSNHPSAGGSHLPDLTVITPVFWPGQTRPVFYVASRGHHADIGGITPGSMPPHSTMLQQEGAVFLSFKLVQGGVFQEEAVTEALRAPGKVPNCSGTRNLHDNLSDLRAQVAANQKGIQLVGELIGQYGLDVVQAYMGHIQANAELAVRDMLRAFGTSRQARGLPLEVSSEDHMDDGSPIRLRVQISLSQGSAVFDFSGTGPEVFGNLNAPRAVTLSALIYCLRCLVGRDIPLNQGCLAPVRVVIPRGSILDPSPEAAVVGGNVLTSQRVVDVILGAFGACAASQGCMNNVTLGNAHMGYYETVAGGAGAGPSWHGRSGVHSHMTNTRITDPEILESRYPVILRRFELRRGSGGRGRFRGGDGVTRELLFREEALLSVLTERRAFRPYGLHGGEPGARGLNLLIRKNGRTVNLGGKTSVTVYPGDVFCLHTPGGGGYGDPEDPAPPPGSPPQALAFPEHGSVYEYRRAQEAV
UniProt Q8N573: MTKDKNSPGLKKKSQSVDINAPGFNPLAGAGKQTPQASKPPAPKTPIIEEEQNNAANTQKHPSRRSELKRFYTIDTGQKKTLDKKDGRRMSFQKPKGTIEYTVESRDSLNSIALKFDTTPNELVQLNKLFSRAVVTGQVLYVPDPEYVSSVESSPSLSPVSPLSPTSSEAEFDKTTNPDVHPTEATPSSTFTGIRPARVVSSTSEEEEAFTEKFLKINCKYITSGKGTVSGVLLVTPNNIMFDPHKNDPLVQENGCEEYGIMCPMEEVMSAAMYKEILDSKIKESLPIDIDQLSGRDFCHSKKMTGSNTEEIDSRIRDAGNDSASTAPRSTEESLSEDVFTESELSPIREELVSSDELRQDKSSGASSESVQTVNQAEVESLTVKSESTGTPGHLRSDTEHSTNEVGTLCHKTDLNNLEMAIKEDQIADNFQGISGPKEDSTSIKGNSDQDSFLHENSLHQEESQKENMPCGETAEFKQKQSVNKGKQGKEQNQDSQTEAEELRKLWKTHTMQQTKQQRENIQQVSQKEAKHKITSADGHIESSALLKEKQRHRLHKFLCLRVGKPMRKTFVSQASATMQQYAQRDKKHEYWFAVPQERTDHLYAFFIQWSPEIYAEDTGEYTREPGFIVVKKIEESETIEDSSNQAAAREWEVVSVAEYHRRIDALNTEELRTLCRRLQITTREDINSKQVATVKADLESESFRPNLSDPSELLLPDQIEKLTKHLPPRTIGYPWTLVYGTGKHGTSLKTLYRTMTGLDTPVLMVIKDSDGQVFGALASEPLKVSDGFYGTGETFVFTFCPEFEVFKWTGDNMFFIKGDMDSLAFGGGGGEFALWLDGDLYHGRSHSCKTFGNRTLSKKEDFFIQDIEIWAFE
UniProt Q9Y5N6: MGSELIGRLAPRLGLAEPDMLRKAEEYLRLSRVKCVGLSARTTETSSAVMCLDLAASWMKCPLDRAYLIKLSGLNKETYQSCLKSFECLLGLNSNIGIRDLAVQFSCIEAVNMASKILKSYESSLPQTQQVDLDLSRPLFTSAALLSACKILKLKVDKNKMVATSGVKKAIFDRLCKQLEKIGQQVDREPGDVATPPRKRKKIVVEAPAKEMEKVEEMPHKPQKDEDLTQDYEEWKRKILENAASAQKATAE
UniProt Q9H4L5: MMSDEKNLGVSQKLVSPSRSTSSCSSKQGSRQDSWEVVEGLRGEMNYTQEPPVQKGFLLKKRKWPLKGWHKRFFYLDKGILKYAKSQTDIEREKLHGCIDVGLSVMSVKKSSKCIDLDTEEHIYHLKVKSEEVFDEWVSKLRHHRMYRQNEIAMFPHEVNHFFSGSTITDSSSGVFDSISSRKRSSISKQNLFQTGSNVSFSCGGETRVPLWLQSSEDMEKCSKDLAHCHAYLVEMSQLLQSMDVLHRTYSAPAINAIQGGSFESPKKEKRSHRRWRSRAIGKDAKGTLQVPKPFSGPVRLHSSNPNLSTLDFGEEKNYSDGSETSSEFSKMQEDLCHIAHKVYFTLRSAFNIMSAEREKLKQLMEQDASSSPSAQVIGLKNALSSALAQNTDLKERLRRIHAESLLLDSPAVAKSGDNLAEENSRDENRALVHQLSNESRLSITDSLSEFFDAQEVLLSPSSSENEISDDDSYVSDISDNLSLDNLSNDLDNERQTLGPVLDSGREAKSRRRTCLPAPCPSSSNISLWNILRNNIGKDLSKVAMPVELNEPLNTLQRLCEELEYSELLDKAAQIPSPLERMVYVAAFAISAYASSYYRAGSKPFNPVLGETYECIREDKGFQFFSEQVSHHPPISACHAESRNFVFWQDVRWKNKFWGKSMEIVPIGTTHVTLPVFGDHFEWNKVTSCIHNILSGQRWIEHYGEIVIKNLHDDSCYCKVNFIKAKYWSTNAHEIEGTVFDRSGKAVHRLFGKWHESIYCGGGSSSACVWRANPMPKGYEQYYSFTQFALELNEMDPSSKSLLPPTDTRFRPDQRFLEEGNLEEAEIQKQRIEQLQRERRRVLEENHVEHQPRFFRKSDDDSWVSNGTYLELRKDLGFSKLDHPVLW

volasertib = compound: CC[C@@H]1C(=O)N(C)c2cnc(Nc3ccc(C(=O)N[C@H]4CC[C@H](N5CCN(CC6CC6)CC5)CC4)cc3OC)nc2N1C(C)C [volasertib]
In short: as §1

[2] = compound: CC[C@H](C)N1C=C(C2=C(C=C(C=C21)C3=CN=C(C=C3)N4CCNCC4)C(=O)NCC5=C(C=C(NC5=O)C)C)C
In short: as §1

epoxomicin = compound: CC[C@H](C)[C@@H](C(=O)N[C@@H]([C@@H](C)O)C(=O)N[C@@H](CC(C)C)C(=O)[C@]1(CO1)C)NC(=O)[C@H]([C@@H](C)CC)N(C)C(=O)C [epoxomicin]
In short: as §1

[3] = compound: CCn1c(C(=O)N(C2CC2)C2CC2)cc2c3c(ncn3C)c(Nc3cc(C)n(C)n3)nc21
In short: as §1

[4] = compound: CCn1cc(-c2ccnc3[nH]c(-c4cccc(CN(C)C)c4)cc23)c(-c2ccc(NC(=O)N(C)C)cc2)n1
In short: as §1

[5] = compound: CN(C)CC(=O)Nc1ccc2[nH]c(=O)c3ccccc3c2c1
In short: as §1

rosiglitazone = compound: CN(CCOC1=CC=C(C=C1)C[C@H]2C(=O)NC(=O)S2)C3=CC=CC=N3 (racemic) [rosiglitazone]
In short: as §1

[6] = compound: CN1C2=C(C3=C1C(=O)N(N=C3)CC4=CC(=CC=C4)N)SC(=C2)S(=O)C
In short: as §1

[7] = compound: CN1CCC(CNc2ccc3ncc(-c4cccc(OC(F)(F)F)c4)n3n2)CC1
In short: as §1

saracatinib = compound: CN1CCN(CCOc2cc(OC3CCOCC3)c3c(Nc4c(Cl)ccc5c4OCO5)ncnc3c2)CC1 [saracatinib]
In short: as §1

sotrastaurin = compound: CN1CCN(c2nc(C3=C(c4c[nH]c5ccccc45)C(=O)NC3=O)c3ccccc3n2)CC1 [sotrastaurin]
In short: as §1

alvocidib = compound: CN1CC[C@H](c2c(O)cc(O)c3c(=O)cc(-c4ccccc4Cl)oc23)[C@H](O)C1 [alvocidib]
In short: as §1

Tubastatin A = compound: CN1CCc2c(c3ccccc3n2Cc2ccc(C(=O)NO)cc2)C1 [Tubastatin A]
In short: as §1

[8] = compound: CNC(=O)C1=CC=CC=C1NC2=NC(=NC=C2Cl)NC3=C(C=C(C=C3)N4CCOCC4)OC
In short: as §1

defactinib = compound: CNC(=O)c1ccc(Nc2ncc(C(F)(F)F)c(NCc3nccnc3N(C)S(C)(=O)=O)n2)cc1 [defactinib]
In short: as §1

rucaparib = compound: CNCc1ccc(-c2[nH]c3cc(F)cc4c3c2CCNC4=O)cc1 [rucaparib]
In short: as §1

[9] = compound: CNc1nc(-c2ccc3c(N)n[nH]c3c2)cc(N2C[C@@H](C(=O)NC3CCCCC3)CC[C@H]2C)n1
In short: as §1

encorafenib = compound: COC(=O)N[C@@H](C)CNc1nccc(-c2cn(C(C)C)nc2-c2cc(Cl)cc(NS(C)(=O)=O)c2F)n1 [encorafenib]
In short: as §1

[10] = compound: COC(=O)[C@H](CCSC)NC(=O)C1=C(C=C(C=C1)NC[C@H](CS)N)C2=CC=CC=C2
In short: as §1

| Target | log2 fold change [1] | log2 fold change (volasertib) | log2 fold change [2] | log2 fold change (epoxomicin) | log2 fold change [3] | log2 fold change [4] | log2 fold change [5] | log2 fold change (rosiglitazone) | log2 fold change [6] | log2 fold change [7] | log2 fold change (saracatinib) | log2 fold change (sotrastaurin) | log2 fold change (alvocidib) | log2 fold change (Tubastatin A) | log2 fold change [8] | log2 fold change (defactinib) | log2 fold change (rucaparib) | log2 fold change [9] | log2 fold change (encorafenib) | log2 fold change [10] |
| --- | --- | --- | --- | --- | --- | --- | --- | --- | --- | --- | --- | --- | --- | --- | --- | --- | --- | --- | --- | --- |
| NSUN6 (UniProt Q8TEA1) | inactive: -0.012 | inactive: 0.001 | inactive: 0.033 | inactive: 0.065 | inactive: -0.012 | inactive: -0.063 | inactive: -0.022 | inactive: 0.008 | inactive: -0.05 | inactive: -0.018 | inactive: -0.005 | inactive: 0.018 | inactive: -0.016 | inactive: -0.041 | inactive: -0.027 | inactive: -0.052 | inactive: -0.042 | inactive: 0.006 | inactive: 0.016 | inactive: 0.015 |
| OCIAD1 (UniProt Q9NX40) | inactive: 0.001 | inactive: 0.049 | inactive: -0.013 | inactive: -0.013 | inactive: 0.018 | inactive: 0.006 | inactive: -0.019 | inactive: 0.007 | inactive: -0.047 | inactive: -0.099 | inactive: 0.04 | inactive: 0.031 | inactive: -0.049 | inactive: -0.009 | inactive: -0.008 | inactive: -0.047 | inactive: -0.055 | inactive: -0.03 | inactive: -0.034 | inactive: 0.032 |
| NUP35 (UniProt Q8NFH5) | inactive: 0.063 | inactive: 0.012 | inactive: 0.015 | inactive: 0.096 | inactive: -0.024 | inactive: -0.031 | inactive: 0.023 | inactive: 0.021 | inactive: 0.035 | inactive: -0.133 | inactive: -0.104 | inactive: 0.002 | inactive: -0.013 | inactive: 0.021 | inactive: -0.033 | inactive: -0.071 | inactive: 0.02 | inactive: 0.016 | inactive: 0.024 | inactive: 0.06 |
| OGN (UniProt P20774) | inactive: 0.053 | inactive: 0.04 | inactive: -0.092 | inactive: -0.19 | inactive: 0.295 |  | inactive: -0.031 | inactive: 0.104 | inactive: 0.098 |  | inactive: -0.077 | inactive: 0.203 | inactive: -0.181 | inactive: -0.092 | inactive: 0.349 | inactive: -0.121 | inactive: -0.263 | inactive: 0.046 | inactive: 0.004 | inactive: -0.068 |
| OTUD6B (UniProt Q8N6M0) | inactive: -0.163 | active: -0.435 | inactive: 0.036 | inactive: 0.094 |  | inactive: -0.055 | inactive: 0.066 |  | inactive: -0.019 | inactive: -0.137 | inactive: -0.009 | inactive: -0.035 |  | inactive: -0.007 | inactive: -0.008 | inactive: -0.138 | inactive: 0.019 | inactive: 0.001 | inactive: 0.122 | inactive: -0.055 |
| P4HA2 (UniProt O15460) | inactive: 0.08 | inactive: -0.012 | inactive: -0.006 | inactive: -0.257 |  | inactive: 0.138 | inactive: -0.036 |  | inactive: 0.112 | inactive: 0.118 | inactive: 0.002 | inactive: -0.033 |  | inactive: 0.098 | inactive: 0.003 | inactive: 0.085 | inactive: 0.145 | inactive: 0.016 | inactive: -0.019 | inactive: 0.001 |
| NUCKS1 (UniProt Q9H1E3) | inactive: -0.061 | inactive: -0.012 | inactive: -0.028 | inactive: 0.016 |  | inactive: 0.014 | inactive: -0.073 |  | inactive: -0.043 | inactive: -0.083 | inactive: 0.006 | inactive: 0.075 |  | inactive: -0.006 | inactive: -0.167 | inactive: 0.048 | inactive: 0.027 | inactive: -0.071 | inactive: -0.068 | inactive: -0.006 |
| NUDT16 (UniProt Q96DE0) | inactive: 0.038 | inactive: 0.033 | inactive: -0.059 | inactive: 0.009 |  | inactive: -0.073 | inactive: -0.011 |  | inactive: -0.069 | inactive: -0.035 | inactive: 0.063 | inactive: -0.031 |  | inactive: 0.009 | inactive: -0.057 | inactive: -0.024 | inactive: 0.009 | inactive: -0.004 | inactive: -0.017 | inactive: -0.05 |
| NUMB (UniProt P49757) | inactive: -0.017 | inactive: 0.057 | inactive: 0.02 | inactive: -0.013 |  | inactive: -0.045 | inactive: -0.024 |  | inactive: -0.007 | inactive: -0.202 | inactive: 0.033 | active: -0.266 |  | inactive: -0.014 | inactive: -0.027 | inactive: -0.044 | inactive: 0.01 | inactive: 0.065 | inactive: 0.081 | inactive: 0 |
| P4HA1 isoform 2 (UniProt P13674) | inactive: 0.004 | inactive: 0.045 | inactive: 0.069 | inactive: 0.069 |  | inactive: 0.022 | inactive: -0.02 | inactive: 0.002 | inactive: 0.136 | inactive: 0.078 | inactive: -0.133 | inactive: 0.039 | inactive: 0.069 | inactive: 0.004 |  | inactive: 0.027 | inactive: 0.043 | inactive: 0.095 | inactive: 0.019 | inactive: -0.143 |
| NUP42 (UniProt O15504) | inactive: 0.206 | inactive: 0.193 | inactive: -0.221 | inactive: -0.412 | inactive: 0.074 | inactive: 0.381 |  | inactive: -0.301 | inactive: 0.256 | inactive: 0.393 | inactive: -0.064 | inactive: 0.007 | inactive: 0.221 | inactive: 0.036 | inactive: 0.098 |  | inactive: 0.398 | inactive: 0.07 | inactive: 0.257 |  |
| OTUD4 (UniProt Q01804) | inactive: 0.078 | inactive: -0.067 | inactive: 0.009 | inactive: -0.085 |  | inactive: 0.098 | inactive: 0.011 |  | inactive: 0.041 | inactive: 0.075 | inactive: -0.031 | inactive: -0.017 |  | inactive: -0.018 | inactive: -0.014 | inactive: 0.054 | inactive: 0.136 | inactive: 0.019 | inactive: 0.036 | inactive: 0.001 |
| NTPCR (UniProt Q9BSD7) | inactive: -0.053 | inactive: 0.076 | inactive: -0.003 | inactive: 0.061 | inactive: 0.024 | inactive: -0.182 | inactive: 0.026 | inactive: 0.051 | inactive: -0.024 | inactive: -0.125 | inactive: -0.001 | inactive: 0.02 | inactive: -0.041 | inactive: -0.039 | inactive: -0.001 | inactive: -0.035 | inactive: -0.077 | inactive: 0.028 | inactive: -0.052 | inactive: -0.014 |
| NUP98 (UniProt P52948) | inactive: -0.12 | active: -0.276 | inactive: 0.084 | inactive: -0.012 |  | inactive: -0.018 | inactive: 0.039 |  | inactive: 0.033 | inactive: -0.038 | inactive: -0.019 | inactive: -0.072 |  | inactive: 0.041 | inactive: 0.018 | inactive: -0.12 | inactive: 0.063 | inactive: -0.037 | inactive: 0.039 | inactive: -0.053 |
| OPLAH (UniProt O14841) | inactive: -0.002 | inactive: -0.025 | inactive: 0.017 | inactive: 0.007 | inactive: -0.01 | inactive: -0.071 | inactive: 0.006 | inactive: 0.03 | inactive: -0.044 | inactive: -0.009 | inactive: 0.006 | inactive: 0.037 | inactive: -0.039 | inactive: -0.009 | inactive: -0.01 | inactive: -0.005 | inactive: 0.012 | inactive: -0.026 | inactive: -0.02 | inactive: 0.006 |
| OXR1 isoform 2 (UniProt Q8N573) | inactive: -0.092 | inactive: -0.09 | inactive: -0.082 | inactive: 0.127 |  | inactive: 0.056 | inactive: -0.004 |  | inactive: -0.015 | inactive: -0.244 | inactive: -0.138 |  |  | inactive: -0.038 |  | inactive: -0.067 | inactive: -0.008 | inactive: 0.092 | inactive: -0.022 | inactive: 0.047 |
| ORC6 (UniProt Q9Y5N6) | inactive: -0.045 | inactive: -0.181 | inactive: 0.045 | inactive: 0.184 |  |  |  |  |  |  |  | inactive: 0.011 |  |  |  |  | inactive: 0.017 |  | inactive: -0.104 |  |
| OSBPL3 (UniProt Q9H4L5) | inactive: 0.136 | inactive: 0.621 | inactive: -0.126 | inactive: -0.37 |  |  | inactive: 0 |  | inactive: 0.164 |  | inactive: -0.284 | inactive: -0.414 |  | inactive: 0.219 | inactive: 0.312 | inactive: 0.127 | inactive: 0.518 | inactive: 0.122 | inactive: 0.006 | inactive: -0.11 |

Look-ups from the results shown:
In log2 fold change [5], NUDT16 (UniProt Q96DE0) has inactive: -0.011
In log2 fold change [6], NUP98 (UniProt P52948) has inactive: 0.033

Reference: the supplement of paper PMC10849652
